Experimental findings from PubChem BioAssay AID2685 (National Center for Advancing Translational Sciences (NCATS), 2010) are described below.

This test in a line: qHTS Assay for Lipid Storage Modulators in Drosophila S3 Cells.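 On cell number change: cells counted by Cell Tracker Red CMTPX staining in the red channel.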 As to conditions: BODIPY lipid droplet fluorescence, 18-24 h; for cell number change: measured here: cell count max response, cells fed with added oleic acid. Summed up:
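Laser-scanning cytometry quantifies lipid droplet accumulation (500–530 nm total intensity; droplet/cell object ratio) in oleic acid-fed (400 uM added) Drosophila S3 cells treated with a concentration series. 20 uM Triacsin C defined 100% inhibition.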
(qHTS replaces the single test concentration by a dilution series.)

The mark [1] stands for this setting: measured here: lipid fluorescence (Fed channel) AC50, cells fed with added oleic acid.
Setting [2] is: measured here: cell number channel AC50, cells fed with added oleic acid.

Each structure is given as a SMILES string. This is one part of the list. These are further read-outs of the screen, such as a control signal, another cell line or another target. No call is given for them. Compounds called inactive in the main read-out are mostly missing here. Potencies come from curve fits of mixed quality, noted in brackets.

As a reminder, the AC50 is the concentration at which the activity in the assay is half-maximal. A higher AC50 goes with weaker potency. Turning to `O=C1Nc2ccc(Br)cc2C12NNc1ccccc1O2` (configuration not stated), the AC50 under setting [1] was 18.4 µM [falling, partial curve].
For the molecule `CC1CCCCC1NC(=O)NC(=O)COC(=O)c1cncc(Br)c1` (configuration not stated), the cell number change is -35.7%. Moreover, the AC50 under setting [2] is 29.1 µM [falling, single point].
For `NC(=O)CC(NC(=O)Cc1ccc(Cl)cc1)c1ccc(NCC2CC2)c([N+](=O)[O-])c1` (configuration not stated), the cell number change was 11.7%. Moreover, under setting [1], the AC50 was 13 µM [rising, single point].
Regarding `CN(C)/C=C1\SC(=S)N(N2C(=O)C3C4C=CC(C4)C3C2=O)C1=O` (configuration not stated), the cell number change was -33%. Also, the concentration at half-maximal activity (AC50) under setting [1] is 0.0146 µM [falling, full curve].
For the molecule `Oc1ccc(C2=NNC(c3ccc(O)cc3)=NN2)cc1`, the cell number change is -6.29%. The AC50 under setting [1] was 0.00461 µM [rising, full curve, poor fit].
With `O=C(Cn1cnc([N+](=O)[O-])c1)NCCc1ccccc1`, the cell number change stood at 6.8%. The AC50 under setting [2] was 5.17 µM [rising, partial curve].
For the molecule `O=C1C(=Cc2cccn2-c2ccc(O)cc2)C(=O)c2ccccc21`, the cell number change stood at 39%. For the same molecule, the AC50 under setting [2] was 5.8 µM [rising, partial curve].
For `FC(F)(F)C(F)(F)C(F)(F)c1nnc2ccc(N3CCOCC3)nn12`, the AC50 is, setting by setting: under setting [2], 2.31 µM [falling, partial curve]; under setting [1], 0.651 µM [falling, single point].
As to `COC(=O)[C@@]12CCCCN1[C@H](c1ccc(-c3ccc(C(C)=O)cc3)cc1)[C@@H]1C(=O)N(C)C(=O)[C@@H]12`, the cell number change is -32.6%. Further, the AC50 under setting [2] is 6.51 µM [falling, full curve, poor fit].
As for `COc1ccc(NC(=O)CSc2nnc(-c3ccccn3)n2N)cc1Cl`, the cell number change is -8.86%. Also, the AC50 under setting [1] is 0.116 µM [falling, single point].
As for `O=C(O)CCCC(=O)NNC(=O)c1cccc(Br)c1`, the cell number change turned out to be 11.8%.
With `CCOC(=O)c1c(NC(=O)C(C)OC(=O)C2=COCCO2)sc2c1CCCC2` (configuration not stated), the cell number change is -17.5%.
In the case of `O=C(OCCN1CCCCC1)c1cccc(F)c1`, the cell number change was -20.2%. Further, under setting [1], the AC50 was 29.1 µM [falling, single point].
As to `CCOC(=O)C(=O)NC12CC3CC(CC(C3)C1)C2`, the cell number change is -30.5%. The AC50 under setting [2] was 0.058 µM [falling, full curve]. Moreover, the AC50 under setting [1] is 25.9 µM [rising, single point].
For `CCN(CC)S(=O)(=O)c1cc(C(=O)c2nccn2C)ccc1Cl`, the cell number change is -20.3%. For the same molecule, under setting [1], the AC50 is 29.1 µM [falling, single point].
Regarding `O=C(Cc1c(F)cccc1Cl)N1CCN(S(=O)(=O)c2cccc(F)c2)CC1`, under setting [1], the AC50 is 0.58 µM [falling, single point].
Turning to `Cc1ccc(C(=O)NCC(=O)N2CCCCCCC2)cc1C`, the cell number change is -19.9%. In addition, the AC50 under setting [1] is 6.51 µM [falling, single point].
For `CCn1cc(S(=O)(=O)NCc2ccccc2Br)cn1`, the cell number change stood at 0.829%. Besides, the AC50 under setting [1] was 18.4 µM [falling, single point].
For the molecule `Cc1ccc(-n2nc(C)c(/C=N/NC(=O)c3cccnc3)c2Cl)cc1`, the cell number change is -4.55%.
Consider `O=C(NC(=S)Nc1ccccc1Cl)c1cncc(Br)c1`, for which the AC50 under setting [1] was 18.4 µM [rising, partial curve].
Regarding `O=C(c1ccc2ncsc2c1)N1CCCC(C(F)(F)F)C1` (configuration not stated), the cell number change is 147%. The AC50 under setting [2] is 10.3 µM [rising, partial curve]. Also, the concentration at half-maximal activity (AC50) under setting [1] was 20.6 µM [rising, partial curve].
`Oc1ccc(-c2nc3ccc4ccccc4c3c3c2CCC3)cc1O`: the cell number change is -42.7%. For the same molecule, the AC50 under setting [2] is 25.9 µM [falling, single point]. In addition, under setting [1], the AC50 was 29.1 µM [falling, single point].
Consider `COc1ccc(Cc2nnc(NS(=O)(=O)c3ccccc3)s2)cc1`, for which the cell number change came out at 17.4%. Besides, the AC50 under setting [1] is 0.651 µM [rising, single point].
As to `NS(=O)(=O)c1ccc2nc(NC(=O)Nc3ccccc3F)sc2c1`, the cell number change is -5.22%.
With `COc1ccc2c(c1)N(C)/C(=C/c1cccc[n+]1C)S2`, the cell number change was determined as 84.7%. For the same molecule, the AC50 under setting [2] was 29.1 µM [rising, single point].
In the case of `CCOC(=O)c1c(C)nc(C)c(C(=O)OCC)c1-c1ccco1`, the cell number change turned out to be 25.1%. Moreover, the AC50 under setting [2] is 2.59 µM [rising, full curve, poor fit].
For the molecule `Cc1ccc(NC(=O)C2CCN(S(=O)(=O)c3ccc4c(c3)C(C)(C)C(=O)N4C)CC2)c(C)c1`, the cell number change worked out at 3.89%. Moreover, under setting [1], the AC50 is 10.3 µM [rising, partial curve].
On to `COc1ccc(N2CCN(C(=O)c3cc4c(-c5ccc(Cl)cc5)nn(C)c4s3)CC2)cc1`, for which the cell number change is -9.59%. Moreover, under setting [2], the half-maximal activity concentration (AC50) was 0.461 µM [rising, full curve, poor fit].
For the molecule `O=C1CSC(c2ccc3c(c2)OCO3)N1c1ccc(Oc2ccccc2)cc1` (configuration not stated), the cell number change turned out to be 19.6%. For the same molecule, under setting [1], the AC50 was 29.1 µM [rising, single point].
Consider `COc1cc(CN(C)CC(=O)c2[nH]c(C)c(C(C)=O)c2C)ccc1OC(F)F`, for which the AC50 is, setting by setting: under setting [2], 0.58 µM [rising, single point]; under setting [1], 0.731 µM [rising, single point].
Take `CC(=O)c1sc(N/N=C\c2ccccc2O)nc1C`: the cell number change is -26.9%. Further, under setting [1], the AC50 was 0.731 µM [falling, single point].
For the molecule `COc1ccccc1N1CCN(C(=O)c2cccs2)CC1`, the cell number change worked out at 21.6%. The AC50 under setting [1] was 9.2 µM [rising, partial curve].
`Cc1ccc(S(=O)(=O)CCC(=O)Nc2cc(Cl)ccc2-n2cncn2)cc1`: the cell number change came out at 63.5%.
As for `CCc1c(C)nc(SCC(=O)c2ccc(C)c(C)c2)[nH]c1=O`, the cell number change was -21.3%. Besides, the AC50 under setting [1] was 16.4 µM [rising, single point].
Turning to `CCC1(C)Cc2c(sc3c2c(=O)n(C)c2nnc(SCc4ccccc4)n32)CO1` (configuration not stated), the cell number change is -13.6%.
For `O=c1/c(=C\c2ccc(O)cc2)sc2n1C(c1ccccc1)C(c1ccccc1)=NN=2` (configuration not stated), the cell number change is 65.9%. In addition, the AC50 under setting [2] was 14.6 µM [rising, partial curve]. Besides, the AC50 under setting [1] is 0.146 µM [rising, full curve, poor fit].
With `O=C(COc1ccc([N+](=O)[O-])cc1)Nc1ccc(S(=O)(=O)N2CCOCC2)cc1`, the cell number change worked out at 17%.
As to `O=c1[nH]c(-c2ccc(O)cc2)nc2scc(-c3cccs3)c12`, the cell number change is -33.6%. In addition, the AC50 under setting [1] was 3.66 µM [rising, single point].
With `COc1cc(OC)cc(C(=O)OCC(=O)Nc2ccc(N3CCCCC3)cc2)c1`, the cell number change came to 4.92%. In addition, under setting [1], the AC50 is 4.61 µM [rising, single point].
In the case of `O=C(CSc1nccn1-c1ccc(F)cc1)NCc1ccc2c(c1)OCO2`, the cell number change was determined as 16.4%. Besides, under setting [1], the AC50 was 29.1 µM [rising, single point].
For `COc1cccc2cc(CC(=O)c3ccccc3)c(=O)oc12`, the cell number change is -3.55%.
Take `Cc1ccc(-c2cc(C(=O)Nc3ccccc3C)c3ccccc3n2)o1`: the cell number change is -34.4%. Besides, the AC50 under setting [2] was 23.1 µM [falling, partial curve]. The AC50 under setting [1] was 25.9 µM [falling, single point].
`CCN1C(=NCCCCO)N[C@@H](c2ccccc2)C(C(=O)OC)=C1C`: the cell number change is 7.97%. Under setting [1], the AC50 was 29.1 µM [rising, single point].
With `OCCn1c(-c2ccc3c(c2)OCO3)csc1=Nc1ccccc1`, the AC50 under setting [2] was 0.731 µM [rising, full curve].
`Cc1cc(/C=C2/NC(=O)N(Cc3ccccc3F)C2=O)c(C)n1C`: the cell number change was determined as 21.5%. Under setting [1], the AC50 is 0.0326 µM [rising, full curve, poor fit].
With `CC(NC(=O)CSc1nc2ccccc2c(=O)[nH]1)c1ccccc1` (configuration not stated), the cell number change stood at 12%. The concentration at half-maximal activity (AC50) under setting [1] is 0.0731 µM [rising, full curve, poor fit].
Turning to `COc1ccc(S(=O)(=O)N(CCCN2CCOCC2)Cc2ccc(OC)c(OC)c2)cc1`, the cell number change is 92.5%. Further, under setting [2], the AC50 was 20.6 µM [rising, partial curve]. In addition, the AC50 under setting [1] was 5.17 µM [rising, full curve, poor fit].
For `Cc1ccc(-c2cc(-c3ccccc3O)nc(N/N=C/c3cccnc3)n2)cc1`, the cell number change came out at 0.986%. Under setting [1], the AC50 was 3.26 µM [falling, partial curve].
As to `CCOc1cc(/C=N/O)ccc1OCc1ccc([N+](=O)[O-])cc1`, the cell number change was 28%. Further, the AC50 under setting [1] is 9.2 µM [rising, partial curve].
For `COc1cc(/C=C(\C#N)C(=O)N2CCOCC2)ccc1OCc1ccccc1`, the AC50 under setting [1] was 0.00461 µM [rising, full curve, poor fit].
Regarding `CC(=O)NCCc1nc2cc(NS(=O)(=O)c3ccccc3)ccc2n1C`, the cell number change stood at 14.8%.
Same read-out and setting: the result for `COC(=O)c1ccccc1NC(=O)CSc1[nH]c(=O)cc(C)c1C#N` reads -8.97%.
Regarding `COc1cccc(NS(=O)(=O)c2ccc(-n3cccn3)cc2)c1`, the AC50 under setting [1] is 1.3 µM [falling, full curve].
Turning to `CCCN1CCN(C(=S)Nc2ccc3nc(N4CCN(CC)CC4)cc(C)c3c2)CC1`, the cell number change was determined as 21.7%. Besides, the AC50 under setting [1] is 3.26 µM [falling, single point].
For `Cc1ccc(Cc2nnc(SCC(=O)Nc3ccccc3Cl)[nH]c2=O)cc1`, the cell number change is 25.5%. The AC50 under setting [1] was 29.1 µM [rising, single point].
As to `C=CCn1c(SCC(=O)N(C(C)CC)C2CCS(=O)(=O)C2)nc2ccccc2c1=O` (configuration not stated), under setting [2], the concentration at half-maximal activity (AC50) is 3.26 µM [rising, partial curve].
`Cc1c(C)c2cc(Cl)c(O)c(CN3CCCCC3)c2oc1=O`: the cell number change turned out to be 12.5%. In addition, under setting [1], the half-maximal activity concentration (AC50) is 6.51 µM [falling, single point].
As for `Cc1ccc(NC(=O)c2ccc3c(c2)C(=O)N(CC2CCCO2)C3=O)cc1C` (configuration not stated), the cell number change is -23.9%. For the same molecule, the AC50 under setting [1] was 9.2 µM [falling, partial curve].
For the molecule `Cc1ccc(S(=O)(=O)N2CCN(C(=O)CSc3n[nH]c(N)n3)CC2)c(C)c1`, the cell number change was -2.68%. For the same molecule, the AC50 under setting [1] was 2.59 µM [rising, full curve].
With `O=C(O)CC1Sc2nnc(COc3ccc(Cl)cc3)n2N=C1c1ccccc1` (configuration not stated), the cell number change is -1.21%. Moreover, under setting [1], the concentration at half-maximal activity (AC50) is 5.17 µM [falling, single point].
With `COc1cc(OC)c(OC)cc1/C=C/c1cc(C(F)(F)F)[nH]c(=O)n1`, the AC50 under setting [1] was 13 µM [rising, partial curve, poor fit].
On to `CCc1ccc(NC(=O)C(C)OC(=O)c2ccc(NS(=O)(=O)c3ccc(C)c([N+](=O)[O-])c3)cc2)cc1` (configuration not stated), for which the cell number change was -16.7%. Under setting [2], the AC50 was 0.116 µM [rising, full curve, poor fit].
